Holding throughout (assay): affinity purification with mass spectrometry
Test [1] deals with carbonic anhydrase-related protein 10 (CAH10) (mouse (endogenous in adult mouse brain)) (UniProt P61215).
In test [2] the target is receptor protein tyrosine phosphatase S (PTPRS) (mouse (endogenous in adult mouse brain)) (UniProt B0V2N1).
The target of test [3] is T1, leucine-rich repeat transmembrane neuronal protein 4 (LRRT4) (mouse (endogenous in adult mouse brain)) (UniProt Q80XG9).
T1 sequence: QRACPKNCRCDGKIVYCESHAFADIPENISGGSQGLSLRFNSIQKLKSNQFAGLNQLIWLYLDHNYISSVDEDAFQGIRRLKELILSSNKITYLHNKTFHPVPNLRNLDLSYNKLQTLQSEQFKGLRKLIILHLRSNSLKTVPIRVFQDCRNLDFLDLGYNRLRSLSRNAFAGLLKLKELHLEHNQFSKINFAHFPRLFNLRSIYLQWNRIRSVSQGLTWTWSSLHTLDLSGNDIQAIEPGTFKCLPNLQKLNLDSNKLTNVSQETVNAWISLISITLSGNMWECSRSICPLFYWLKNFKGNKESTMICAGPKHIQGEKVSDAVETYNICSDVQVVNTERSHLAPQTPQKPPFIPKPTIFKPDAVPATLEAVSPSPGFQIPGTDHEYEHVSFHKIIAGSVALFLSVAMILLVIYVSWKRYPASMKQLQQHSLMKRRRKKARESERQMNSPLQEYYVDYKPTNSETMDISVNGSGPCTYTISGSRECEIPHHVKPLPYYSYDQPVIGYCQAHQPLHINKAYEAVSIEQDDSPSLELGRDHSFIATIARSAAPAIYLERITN

The chains behind the UniProt entries cited, without tags or fusion partners. Where a name states a change or a piece, a line headed by the entry shows the natural chain unless it says otherwise. Residues count along the entry.
UniProt P61215: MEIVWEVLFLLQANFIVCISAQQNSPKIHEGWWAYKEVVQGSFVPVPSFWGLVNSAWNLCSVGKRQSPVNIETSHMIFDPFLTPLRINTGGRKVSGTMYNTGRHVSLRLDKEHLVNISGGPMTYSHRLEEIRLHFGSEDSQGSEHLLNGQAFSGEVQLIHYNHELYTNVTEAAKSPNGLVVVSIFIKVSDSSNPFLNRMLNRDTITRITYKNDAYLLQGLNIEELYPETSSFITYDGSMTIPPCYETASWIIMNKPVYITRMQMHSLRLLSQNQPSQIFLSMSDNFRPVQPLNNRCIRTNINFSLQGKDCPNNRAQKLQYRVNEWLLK
UniProt B0V2N1, residues 30-1907: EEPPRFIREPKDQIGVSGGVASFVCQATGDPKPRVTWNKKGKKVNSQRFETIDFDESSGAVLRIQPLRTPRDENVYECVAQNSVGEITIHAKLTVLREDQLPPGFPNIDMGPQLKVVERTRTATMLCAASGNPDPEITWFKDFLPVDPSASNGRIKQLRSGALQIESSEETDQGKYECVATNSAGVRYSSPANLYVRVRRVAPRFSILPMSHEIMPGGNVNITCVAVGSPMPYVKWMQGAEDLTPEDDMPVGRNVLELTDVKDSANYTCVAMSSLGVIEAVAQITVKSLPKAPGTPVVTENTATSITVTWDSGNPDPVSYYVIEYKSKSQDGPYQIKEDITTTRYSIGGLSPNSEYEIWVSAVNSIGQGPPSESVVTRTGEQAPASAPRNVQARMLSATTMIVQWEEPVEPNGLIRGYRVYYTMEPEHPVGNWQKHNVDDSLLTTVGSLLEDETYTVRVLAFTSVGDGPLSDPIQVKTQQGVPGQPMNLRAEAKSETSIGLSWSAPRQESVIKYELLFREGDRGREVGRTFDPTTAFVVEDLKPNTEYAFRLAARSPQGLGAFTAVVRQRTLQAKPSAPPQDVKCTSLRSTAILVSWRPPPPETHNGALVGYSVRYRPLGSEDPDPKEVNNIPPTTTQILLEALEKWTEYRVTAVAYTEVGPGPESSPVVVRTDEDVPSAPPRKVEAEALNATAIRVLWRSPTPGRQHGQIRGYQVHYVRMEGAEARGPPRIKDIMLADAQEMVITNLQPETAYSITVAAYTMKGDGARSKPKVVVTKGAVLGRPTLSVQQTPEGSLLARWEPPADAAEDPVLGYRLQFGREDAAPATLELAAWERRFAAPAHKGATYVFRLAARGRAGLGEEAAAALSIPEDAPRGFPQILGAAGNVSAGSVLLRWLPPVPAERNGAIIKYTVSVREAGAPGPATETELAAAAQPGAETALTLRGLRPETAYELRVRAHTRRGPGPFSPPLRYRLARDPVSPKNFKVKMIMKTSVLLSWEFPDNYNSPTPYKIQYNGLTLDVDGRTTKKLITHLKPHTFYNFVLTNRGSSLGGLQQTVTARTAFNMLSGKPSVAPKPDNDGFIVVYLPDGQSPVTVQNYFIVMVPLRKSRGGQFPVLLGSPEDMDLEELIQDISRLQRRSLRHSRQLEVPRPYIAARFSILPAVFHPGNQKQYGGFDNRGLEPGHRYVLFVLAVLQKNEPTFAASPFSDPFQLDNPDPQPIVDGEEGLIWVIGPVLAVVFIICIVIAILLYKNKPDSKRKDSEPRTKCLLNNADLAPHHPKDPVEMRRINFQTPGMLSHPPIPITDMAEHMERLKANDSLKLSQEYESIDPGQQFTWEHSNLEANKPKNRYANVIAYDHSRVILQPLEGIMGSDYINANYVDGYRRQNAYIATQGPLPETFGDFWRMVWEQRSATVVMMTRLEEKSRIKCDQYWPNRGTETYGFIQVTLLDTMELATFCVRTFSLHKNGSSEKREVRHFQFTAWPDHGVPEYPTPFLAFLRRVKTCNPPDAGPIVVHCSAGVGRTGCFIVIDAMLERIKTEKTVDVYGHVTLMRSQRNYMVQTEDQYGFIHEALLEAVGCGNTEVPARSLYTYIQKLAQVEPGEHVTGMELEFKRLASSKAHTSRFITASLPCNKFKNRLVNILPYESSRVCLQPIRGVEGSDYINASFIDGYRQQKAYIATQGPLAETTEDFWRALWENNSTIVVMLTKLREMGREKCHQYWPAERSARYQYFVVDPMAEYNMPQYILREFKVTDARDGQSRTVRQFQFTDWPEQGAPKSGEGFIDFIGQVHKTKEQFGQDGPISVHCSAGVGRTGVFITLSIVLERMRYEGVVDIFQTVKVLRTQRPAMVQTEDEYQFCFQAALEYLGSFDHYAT
UniProt E9Q7X7, residues 29-1710: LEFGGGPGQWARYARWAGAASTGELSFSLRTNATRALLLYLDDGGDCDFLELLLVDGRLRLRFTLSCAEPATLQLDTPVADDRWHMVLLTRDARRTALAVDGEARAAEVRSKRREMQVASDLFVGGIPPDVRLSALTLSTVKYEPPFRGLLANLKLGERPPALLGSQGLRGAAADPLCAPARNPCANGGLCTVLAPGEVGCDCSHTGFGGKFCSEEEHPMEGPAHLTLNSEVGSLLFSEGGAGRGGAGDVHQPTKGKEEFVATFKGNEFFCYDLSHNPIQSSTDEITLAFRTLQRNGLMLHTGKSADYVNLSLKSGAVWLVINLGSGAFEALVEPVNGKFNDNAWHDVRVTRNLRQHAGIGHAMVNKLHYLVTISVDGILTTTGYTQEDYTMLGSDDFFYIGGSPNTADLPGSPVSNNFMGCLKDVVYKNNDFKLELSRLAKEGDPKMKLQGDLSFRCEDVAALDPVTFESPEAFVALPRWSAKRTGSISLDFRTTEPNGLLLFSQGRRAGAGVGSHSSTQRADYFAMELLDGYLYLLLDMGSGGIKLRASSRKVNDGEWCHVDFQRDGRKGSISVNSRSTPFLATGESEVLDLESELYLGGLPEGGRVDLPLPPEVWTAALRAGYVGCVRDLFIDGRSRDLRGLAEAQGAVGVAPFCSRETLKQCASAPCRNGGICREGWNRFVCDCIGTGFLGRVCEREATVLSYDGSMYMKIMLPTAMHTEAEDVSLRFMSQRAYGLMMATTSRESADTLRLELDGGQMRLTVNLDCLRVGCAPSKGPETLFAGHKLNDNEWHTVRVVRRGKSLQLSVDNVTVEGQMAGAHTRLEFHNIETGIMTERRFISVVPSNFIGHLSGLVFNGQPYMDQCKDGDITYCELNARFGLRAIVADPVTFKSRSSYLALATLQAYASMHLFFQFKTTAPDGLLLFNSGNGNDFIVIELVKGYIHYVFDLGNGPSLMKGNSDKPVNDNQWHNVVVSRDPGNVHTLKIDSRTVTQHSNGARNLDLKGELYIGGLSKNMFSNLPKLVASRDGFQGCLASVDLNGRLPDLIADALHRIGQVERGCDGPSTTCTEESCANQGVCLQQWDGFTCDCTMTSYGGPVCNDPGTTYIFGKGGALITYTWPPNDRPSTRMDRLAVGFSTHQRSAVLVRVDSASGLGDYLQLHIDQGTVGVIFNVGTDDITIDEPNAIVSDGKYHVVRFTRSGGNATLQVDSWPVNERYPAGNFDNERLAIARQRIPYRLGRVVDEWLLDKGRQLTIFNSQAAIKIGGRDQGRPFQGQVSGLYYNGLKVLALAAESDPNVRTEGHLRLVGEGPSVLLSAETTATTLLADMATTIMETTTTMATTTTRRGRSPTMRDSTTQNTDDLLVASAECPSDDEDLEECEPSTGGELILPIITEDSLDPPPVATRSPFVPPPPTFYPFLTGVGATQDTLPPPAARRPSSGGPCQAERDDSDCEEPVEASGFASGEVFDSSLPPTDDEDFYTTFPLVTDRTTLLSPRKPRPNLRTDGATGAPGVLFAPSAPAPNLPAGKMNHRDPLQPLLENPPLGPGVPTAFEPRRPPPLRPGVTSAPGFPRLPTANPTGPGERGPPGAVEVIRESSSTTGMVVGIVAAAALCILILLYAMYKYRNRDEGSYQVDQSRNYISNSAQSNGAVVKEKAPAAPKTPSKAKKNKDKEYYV
UniProt Q6P9K9, residues 28-1571: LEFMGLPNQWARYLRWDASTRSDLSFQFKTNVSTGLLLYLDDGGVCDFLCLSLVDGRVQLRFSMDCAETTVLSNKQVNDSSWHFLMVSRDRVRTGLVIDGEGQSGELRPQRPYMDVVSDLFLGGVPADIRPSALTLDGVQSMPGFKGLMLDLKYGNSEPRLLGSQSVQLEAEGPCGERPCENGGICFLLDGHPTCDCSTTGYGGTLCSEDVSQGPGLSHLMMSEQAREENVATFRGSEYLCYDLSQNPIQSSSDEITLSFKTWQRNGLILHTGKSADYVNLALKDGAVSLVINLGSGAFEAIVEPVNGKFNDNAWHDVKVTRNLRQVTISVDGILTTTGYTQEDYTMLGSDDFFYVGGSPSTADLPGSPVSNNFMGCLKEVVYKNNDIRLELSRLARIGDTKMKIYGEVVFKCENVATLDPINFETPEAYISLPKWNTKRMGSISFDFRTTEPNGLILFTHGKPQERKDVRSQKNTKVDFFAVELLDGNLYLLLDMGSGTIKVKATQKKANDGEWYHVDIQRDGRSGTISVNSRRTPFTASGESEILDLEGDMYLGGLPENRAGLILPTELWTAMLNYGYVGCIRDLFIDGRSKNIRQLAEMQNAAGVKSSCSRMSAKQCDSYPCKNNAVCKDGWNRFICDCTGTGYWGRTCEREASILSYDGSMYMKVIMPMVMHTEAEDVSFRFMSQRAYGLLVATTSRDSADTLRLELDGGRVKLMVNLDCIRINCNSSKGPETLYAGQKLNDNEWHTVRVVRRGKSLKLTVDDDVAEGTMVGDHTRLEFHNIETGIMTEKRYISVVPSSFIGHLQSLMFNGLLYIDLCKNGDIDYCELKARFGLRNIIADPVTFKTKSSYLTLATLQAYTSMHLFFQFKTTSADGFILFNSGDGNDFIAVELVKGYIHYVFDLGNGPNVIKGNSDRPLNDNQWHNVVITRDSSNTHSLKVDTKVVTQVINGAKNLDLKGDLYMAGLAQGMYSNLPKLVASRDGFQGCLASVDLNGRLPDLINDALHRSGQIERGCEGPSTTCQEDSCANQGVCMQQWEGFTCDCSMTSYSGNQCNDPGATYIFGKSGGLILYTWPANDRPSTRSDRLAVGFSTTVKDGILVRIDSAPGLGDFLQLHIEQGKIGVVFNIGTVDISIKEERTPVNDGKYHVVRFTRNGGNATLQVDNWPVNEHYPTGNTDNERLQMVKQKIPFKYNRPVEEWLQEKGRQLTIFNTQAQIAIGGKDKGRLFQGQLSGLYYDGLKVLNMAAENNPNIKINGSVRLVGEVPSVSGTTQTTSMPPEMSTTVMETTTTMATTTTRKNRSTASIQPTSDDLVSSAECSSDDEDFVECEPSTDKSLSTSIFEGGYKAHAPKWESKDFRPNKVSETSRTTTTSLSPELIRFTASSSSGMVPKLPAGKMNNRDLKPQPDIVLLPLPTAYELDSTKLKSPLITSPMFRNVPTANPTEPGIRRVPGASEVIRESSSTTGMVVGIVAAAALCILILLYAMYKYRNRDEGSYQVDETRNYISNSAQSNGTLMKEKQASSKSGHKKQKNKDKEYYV
UniProt D3Z7H4: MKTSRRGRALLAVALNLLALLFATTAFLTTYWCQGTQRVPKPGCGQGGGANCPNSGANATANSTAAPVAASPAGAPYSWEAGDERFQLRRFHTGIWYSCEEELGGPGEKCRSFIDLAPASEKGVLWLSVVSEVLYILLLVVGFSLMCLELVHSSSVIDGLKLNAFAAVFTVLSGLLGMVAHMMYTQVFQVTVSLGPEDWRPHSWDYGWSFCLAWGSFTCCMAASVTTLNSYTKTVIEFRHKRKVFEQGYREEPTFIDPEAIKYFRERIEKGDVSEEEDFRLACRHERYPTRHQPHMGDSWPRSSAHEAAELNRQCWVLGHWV
UniProt E9Q6C8: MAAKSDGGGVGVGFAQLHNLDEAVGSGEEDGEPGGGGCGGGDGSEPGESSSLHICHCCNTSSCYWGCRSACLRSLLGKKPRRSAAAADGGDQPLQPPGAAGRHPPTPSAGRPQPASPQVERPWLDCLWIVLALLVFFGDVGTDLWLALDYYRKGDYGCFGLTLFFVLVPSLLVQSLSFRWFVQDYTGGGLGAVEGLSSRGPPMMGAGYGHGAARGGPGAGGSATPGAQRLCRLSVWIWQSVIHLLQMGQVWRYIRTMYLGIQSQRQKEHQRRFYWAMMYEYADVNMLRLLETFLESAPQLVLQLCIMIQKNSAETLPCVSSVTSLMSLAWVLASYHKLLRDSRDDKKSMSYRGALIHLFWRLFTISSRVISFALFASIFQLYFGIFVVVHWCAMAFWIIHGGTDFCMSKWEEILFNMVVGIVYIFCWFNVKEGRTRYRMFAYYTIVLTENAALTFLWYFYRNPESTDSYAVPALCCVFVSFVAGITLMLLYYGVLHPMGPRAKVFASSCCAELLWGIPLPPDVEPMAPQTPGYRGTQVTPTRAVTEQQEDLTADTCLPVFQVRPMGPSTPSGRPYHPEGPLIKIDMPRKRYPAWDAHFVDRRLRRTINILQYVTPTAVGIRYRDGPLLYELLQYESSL

For test [4], the target named is PTPRS (cultured neurons) (rat (endogenous in cultured neurons)) (UniProt Q64605).
Test [5] deals with neurexin 2 (NRX2) (mouse (endogenous in adult mouse brain)) (UniProt E9Q7X7).
Test [6] addresses neurexin 3 (NRX3) (mouse (endogenous in adult mouse brain)) (UniProt Q6P9K9).
Test [7] has as its target neurexin 1 (NRX1) (mouse (endogenous in adult mouse brain)) (UniProt Q9CS84).
Test [8] deals with T2, neurexophilin 3 (NXPH3) (mouse (endogenous in adult mouse brain)) (UniProt Q91VX5).
T2 sequence: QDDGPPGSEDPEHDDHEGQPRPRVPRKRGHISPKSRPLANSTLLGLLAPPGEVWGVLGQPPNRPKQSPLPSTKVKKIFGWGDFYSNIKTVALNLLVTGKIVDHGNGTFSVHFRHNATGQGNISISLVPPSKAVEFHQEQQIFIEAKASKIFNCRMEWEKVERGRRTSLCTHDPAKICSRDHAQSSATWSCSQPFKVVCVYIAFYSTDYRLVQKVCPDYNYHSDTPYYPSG

These are yes or no findings as the source states them, for the method shown. In cells and extracts the contact can be indirect. A yes stands for co-enrichment or nearness to the bait. Other partners may have been found. For some of these results: No binding means not detected with the bait.

We go through twelve substances from doi:10.1101/2024.07.16.603715.

For the substance “AMPAR subunit GRIA3 (from UniProt Q9Z2W9 23-888)”, the binding entry in test [1] and in test [2] was “binds” in each case.
Take “Cav2.2 (CAC1B) (from UniProt O55017 1-2327)”: the binding result in test [2] is reported as “binds”.
For GSG1l (from UniProt D3Z7H4 1-322), the binding result in test [3], in test [1] and in test [2] was “binds” in each case.
On to NOE1 (from UniProt O88998 17-485), for which the binding result in test [1] and in test [2] was “binds” throughout.
On to “SYT11 (cultured neurons) (from UniProt O08835 1-430)”, for which the binding entry in test [4] is recorded as “binds”.
As to “XK-related protein 6 (XKR6) (from UniProt E9Q6C8 1-638)”, the binding entry in test [5], in test [6] and in test [7] was “binds” in each case.
On to “carbonic anhydrase-related protein 10 (CAH10) (from UniProt P61215)”, for which the binding entry in test [2] was “binds”.
As for “liprin-α2 (LIPA2) (from UniProt Q8BSS9 1-1257)”, the binding entry in test [2] is “binds”.
Turning to “neurexin 1 (NRX1) (from UniProt Q9CS84 31-1514)”, the figures for the binding result in test [5], in test [6] and in test [2] were “no binding”, “no binding” and “binds”, respectively.
“neurexin 2 (NRX2) (from UniProt E9Q7X7 29-1710)”: the binding result in test [6] was “no binding”; in test [7] it was “no binding”; in test [2], “binds”.
As to “neurexin 3 (NRX3) (from UniProt Q6P9K9 28-1571)”, the binding entry in test [5] is “no binding”; in test [7], “no binding”; in test [2] it was “binds”.
For the substance “tetraspanin T178B (mouse (endogenous in adult mouse brain))”, the binding result in test [3] and in test [8] was “binds” throughout.
